For at least one compound, name, drawing or mass did not settle the structure.
Tests used:
[1] = Low pressure (175 psig) package boiler study of DEAE and DMAPA (Table IV); conditions: 175 psig boiler
[2] = at atmospheric pressure; cited from earlier work
[3] = Additional testing of decomposition products of high molecular weight amines; format: physicochemical; conditions: temperature and pressure common to a typical boiler/condensate steam system

CCN(CC)CCO [DEAE, diethylaminoethanol]
Feedwater concentration ([1]; time 1): 55 ppm
Steam concentration ([1]; time 1): 55 ppm
Feedwater concentration ([1]; time 2): 54 ppm
Steam concentration ([1]; time 2): 51 ppm
Feedwater concentration ([1]; time 3): 53 ppm
Steam concentration ([1]; time 3): 52 ppm
Feedwater concentration ([1]; time 4): 51 ppm
Steam concentration ([1]; time 4): 54 ppm
Feedwater concentration ([1]; time 5): 53 ppm
Steam concentration ([1]; time 5): 50 ppm
Feedwater concentration ([1]; time 6): 51 ppm
Steam concentration ([1]; time 6): 55 ppm
Feedwater concentration ([1]; time 7): 45 ppm
Steam concentration ([1]; time 7): 50 ppm
Distribution ratio [2]: 1.7
decomposition at boiler conditions [3]: partial decomposition into the volatile, relatively low molecular weight amines ethylaminoethanol (EAE) and diethylamine (DEA)
